Experimental data published in the supplement of paper PMC8728848.
The other results are listed elsewhere or left out.

Tests used:
Test in all cases: glycan array binding signal (z-score within array); higher = stronger binding
Conditions in all cases: glycan notation: IUPAC condensed, linker removed
[1] = target: Fuc(a1-2)Gal(b1-4)GlcNAc(b1-3)Gal(b1-4)GlcNAc(b1-2)Man(a1-3)[Fuc(a1-2)Gal(b1-4)GlcNAc(b1-3)Gal(b1-4)GlcNAc(b1-2)Man(a1-6)]Man(b1-4)GlcNAc(b1-4)GlcNAc
Procedure, shortened: (§1)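 Columns mapping to the same glycan were averaged after glycan names were converted to IUPAC-condensed notation. The data come from 3228 arrays in the Consortium for Functional Glycomics database, limited to those with an available protein sequence. Binding is reported as a within-array Z-score averaged across arrays of one protein sequence and across linkers.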

[2] = target: Fuc(a1-2)Gal(b1-4)GlcNAc(b1-3)Gal(b1-4)GlcNAc(b1-3)Gal(b1-4)GlcNAc
Procedure, shortened: as §1

[3] = target: Fuc(a1-2)Gal(b1-4)GlcNAc(b1-3)GalNAc
Procedure, shortened: as §1

[4] = target: Fuc(a1-2)Gal(b1-4)GlcNAc(b1-3)[Fuc(a1-2)Gal(b1-4)GlcNAc(b1-6)]GalNAc
Procedure, shortened: as §1

[5] = target: Fuc(a1-2)Gal(b1-4)GlcNAc(b1-3)[Fuc(a1-3)[Gal(b1-4)]GlcNAc(b1-6)]Gal(b1-4)Glc
Procedure, shortened: as §1

[6] = target: Fuc(a1-2)Gal(b1-4)GlcNAc(b1-6)GalNAc
Procedure, shortened: as §1

[7] = target: Fuc(a1-2)Gal(b1-4)GlcNAc6S
Procedure, shortened: as §1

[8] = target: Fuc(a1-2)Gal(b1-4)[Fuc(a1-3)]GlcNAc
Procedure, shortened: as §1

[9] = target: Fuc(a1-2)Gal(b1-4)[Fuc(a1-3)]GlcNAc(b1-2)Man(a1-3)[Fuc(a1-2)Gal(b1-4)[Fuc(a1-3)]GlcNAc(b1-2)Man(a1-6)]Man(b1-4)GlcNAc(b1-4)[Fuc(a1-6)]GlcNAc
Procedure, shortened: as §1

[10] = target: Fuc(a1-2)Gal(b1-4)[Fuc(a1-3)]GlcNAc(b1-2)[Fuc(a1-2)Gal(b1-4)[Fuc(a1-3)]GlcNAc(b1-4)]Man(a1-3)[Fuc(a1-2)Gal(b1-4)[Fuc(a1-3)]GlcNAc(b1-2)Man(a1-6)]Man(b1-4)GlcNAc(b1-4)GlcNAc
Procedure, shortened: as §1

[11] = target: Fuc(a1-2)Gal(b1-4)[Fuc(a1-3)]GlcNAc(b1-3)Gal(b1-4)[Fuc(a1-3)]GlcNAc
Procedure, shortened: as §1

[12] = target: Fuc(a1-2)Gal(b1-4)[Fuc(a1-3)]GlcNAc(b1-3)Gal(b1-4)[Fuc(a1-3)]GlcNAc(b1-3)Gal(b1-4)[Fuc(a1-3)]GlcNAc
Procedure, shortened: as §1

[13] = target: Fuc(a1-2)Gal(b1-4)[Fuc(a1-3)]GlcNAc(b1-3)GalNAc
Procedure, shortened: as §1

[14] = target: Fuc(a1-2)Gal(b1-4)[Fuc(a1-3)]GlcNAc(b1-3)[Neu5Ac(a2-6)Gal(b1-4)GlcNAc(b1-6)]Gal(b1-4)Glc
Procedure, shortened: as §1

[15] = target: Fuc(a1-2)Gal3S(b1-4)GlcNAc
Procedure, shortened: as §1

[16] = target: Fuc(a1-2)Gal6S(b1-3)GlcNAc
Procedure, shortened: as §1

[17] = target: Fuc(a1-2)Gal6S(b1-3)GlcNAc6S
Procedure, shortened: as §1

Fuc(a1-2)Gal6S(b1-4)Glc = target: Fuc(a1-2)Gal6S(b1-4)Glc
Procedure, shortened: as §1

[18] = target: Fuc(a1-2)Gal6S(b1-4)Glc6S
Procedure, shortened: as §1

Fuc(a1-2)[Gal(a1-3)]Gal = target: Fuc(a1-2)[Gal(a1-3)]Gal
Procedure, shortened: as §1

[19] = target: Fuc(a1-2)[Gal(a1-3)]Gal(b1-3)GalNAc
Procedure, shortened: as §1

[20] = target: Fuc(a1-2)[Gal(a1-3)]Gal(b1-3)GalNAc(b1-3)Gal(a1-4)Gal(b1-4)Glc
Procedure, shortened: as §1

[21] = target: Fuc(a1-2)[Gal(a1-3)]Gal(b1-3)GlcNAc
Procedure, shortened: as §1

[22] = target: Fuc(a1-2)[Gal(a1-3)]Gal(b1-3)GlcNAc(b1-2)Man(a1-3)[Fuc(a1-2)[Gal(a1-3)]Gal(b1-3)GlcNAc(b1-2)Man(a1-6)]Man(b1-4)GlcNAc(b1-4)GlcNAc
Procedure, shortened: as §1

[23] = target: Fuc(a1-2)[Gal(a1-3)]Gal(b1-3)GlcNAc(b1-2)Man(a1-3)[Fuc(a1-2)[Gal(a1-3)]Gal(b1-3)GlcNAc(b1-2)Man(a1-6)]Man(b1-4)GlcNAc(b1-4)[Fuc(a1-6)]GlcNAc
Procedure, shortened: as §1

[24] = target: Fuc(a1-2)[Gal(a1-3)]Gal(b1-3)GlcNAc(b1-3)GalNAc
Procedure, shortened: as §1

[25] = target: Fuc(a1-2)[Gal(a1-3)]Gal(b1-3)GlcNAc(b1-6)GalNAc
Procedure, shortened: as §1

[26] = target: Fuc(a1-2)[Gal(a1-3)]Gal(b1-4)Glc
Procedure, shortened: as §1

[27] = target: Fuc(a1-2)[Gal(a1-3)]Gal(b1-4)GlcNAc
Procedure, shortened: as §1

[28] = target: Fuc(a1-2)[Gal(a1-3)]Gal(b1-4)GlcNAc(b1-2)Man
Procedure, shortened: as §1

B1: AT1G77380(17) (Arabidopsis thaliana), Q39134 (protein)
chain: MVQNHQTVLAVDMPQTGGSKYLDDDGKNKRTGSVWTASAHIITAVIGSGVLSLAWATAQLGWLAGPVVMLLFSAVTYFTSSLLAACYRSGDPISGKRNYTYMDAVRSNLGGVKVTLCGIVQYLNIFGVAIGYTIASAISMMAIKRSNCFHKSGGKDPCHMNSNPYMIAFGLVQILFSQIPDFDQLWWLSILAAVMSFTYSSAGLALGIAQVVVNGKVKGSLTGISIGAVTETQKIWRTFQALGDIAFAYSYSIILIEIQDTVKSPPSEEKTMKKATLVSVSVTTMFYMLCGCMGYAAFGDLSPGNLLTGFGFYNPYWLLDIANAAIVIHLIGAYQVYCQPLFAFIEKQASIQFPDSEFIAKDIKIPIPGFKPLRLNVFRLIWRTVFVIITTVISMLLPFFNDVVGLLGALGFWPLTVYFPVEMYIAQKKIPRWSTRWVCLQVFSLGCLVVSIAAAAGSIAGVLLDLKSYKPFRSEY
- glycan array binding signal (z-score) [1]: -0.469
- glycan array binding signal (z-score) [2]: -0.084
- glycan array binding signal (z-score) [3]: 0.521
- glycan array binding signal (z-score) [4]: -0.495
- glycan array binding signal (z-score) [5]: 2.76
- glycan array binding signal (z-score) [6]: -0.513
- glycan array binding signal (z-score) [7]: -0.166
- glycan array binding signal (z-score) [8]: -0.89
- glycan array binding signal (z-score) [9]: -0.175
- glycan array binding signal (z-score) [10]: -0.413
- glycan array binding signal (z-score) [11]: -0.559
- glycan array binding signal (z-score) [12]: -0.148
- glycan array binding signal (z-score) [13]: 0.277
- glycan array binding signal (z-score) [14]: 1.42
- glycan array binding signal (z-score) [15]: 0.734
- glycan array binding signal (z-score) [16]: -0.387
- glycan array binding signal (z-score) [17]: 0.89
- glycan array binding signal (z-score) (Fuc(a1-2)Gal6S(b1-4)Glc): -0.068
- glycan array binding signal (z-score) [18]: 0.92
- glycan array binding signal (z-score) (Fuc(a1-2)[Gal(a1-3)]Gal): 0.342
- glycan array binding signal (z-score) [19]: -0.039
- glycan array binding signal (z-score) [20]: 0.171
- glycan array binding signal (z-score) [21]: -0.337
- glycan array binding signal (z-score) [22]: -0.365
- glycan array binding signal (z-score) [23]: 0.12
- glycan array binding signal (z-score) [24]: -0.109
- glycan array binding signal (z-score) [25]: -0.075
- glycan array binding signal (z-score) [26]: -0.473
- glycan array binding signal (z-score) [27]: -0.468
- glycan array binding signal (z-score) [28]: -0.68
